Data as given in publication PMC6703431.

B1: Encephalitozoon hellem polar tube protein 1 (EhPTP1), yeast two-hybrid fusion (protein, UniProt O76273 1-453)
chain: MKGISKILSASIMVMKLGNVYSAVPLCSNTYDPSQQQPSYVLIPSTPEAITNCAYSPKNAYVPSSPTTSSSTPGTNNDNETSPTTEDVGTCKISVVKHCDTPGASSTPCEPEQTIPAQPVTMATVTPAIIASVQTPSVVSVIPVTQKVIQPATMIVPPSSIIPGYYPNGTPAAPGQQGQILSGSVLAPGASSCQLVPGNTPGQMLPGMTPGVSPCLPTQGGDGSNQTIPGIVYPCQPGQGGSGSNQTIPGVISPCQPGQGGSGSNQTIPGIVYPCQPGQGGSGSNQTIPGVISPCQPGQGGSGSNQTIPGIVYPCQPGQNGDGSNQTIPGVISPCQPGQGGNGNGTTGQPGQCVSVPQTPNPIAMPPISGISGNGYPTSTTYTQSLGQLGPCIDVQKPTSSCESQTNEKSTMQYAMEACAAPTPTVVIGNSEYLVGPGMYSSLTSPCNSCCQC
B2: Encephalitozoon hellem polar tube protein 2 (EhPTP2), yeast two-hybrid fusion (protein, UniProt P0CAT5 1-272)
chain: MLLLFTVVTLVSAAQVAPVTPQAAVPTQFLPGAQQKIGGVDNRCANKQVEGVQIFQGDMADCPKRNSEAANAMVQRAKQKALEIYNKEISKGPTPKDSGQCIERAVQGTDRCILAKIIDKAVNMLKYRISKVGNATALFRGNKLISLILNVDYGLKPFFTVVKKKTKRVFPQGDELNFNGIGQLIGVKGTFPQDNNDECKPCDSPKKTVETVAEECNLGCQLKGTPGLISRAIQKKEVKESSKDGEKSSTQNGEGTTDDEDGQQSPDGNGPE

Molecular target: Encephalitozoon hellem sporoplasm surface protein 1 (EhSSP1), yeast two-hybrid fusion (Encephalitozoon hellem)
Test: two-hybrid; EhSSP1 bait in pGBKT7-BD (Y2H Gold) mated with preys in pGADT7-AD (Y187); selection on QDO/X/A plates, 30°C, 5 to 7 days

Row | Binder | binding
1 | B1 | no binding
2 | B2 | no binding

These are yes or no findings as the source states them, for the method shown. Sequences can lack the tags named with a protein.
